PubChem BioAssay AID504793 – Drosophila RNAi Screening Center – 2011

Test: 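Knock-downs allowing continued mitosis even though DNA is damaged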 (primary screen)
System: Drosophila S2R+ cells
Reagents: long dsRNA against Drosophila genes, about 0.25 µg dsRNA per well
Time to read-out: 4 days of dsRNA, then 4 hours of drug before read-out
Conditions: doxorubicin 0.5 µM for 4 hours to cause double-strand breaks, in cells also given a low, harmless dose of dsRNA against nbs to sensitise the assay
Measurement: 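Mitotic index as the number of phospho-histone H3-positive cells in each well following doxorubicin, given as raw counts without normalisation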
Direction: mitotic cells: higher = more cells in mitosis, weaker G2 arrest
Rule for the call: 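Genes are called active only when high mitotic counts were reproduced with independent dsRNAs and mitosis was checked for delay without damage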
Meaning of the calls: active = confirmed in follow-up tests; inactive = not confirmed
The deposit covers about 23,000 reagents; this is a random part of those with a known target gene and a result. Over the whole deposit, 62 (0.27%) are marked active. 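Calls come from follow-up tests whose scores are not deposited, so confirmed genes may have low counts here; counts are not normalised per plate.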 Raw values are not corrected between plates. A plus sign joins genes that one reagent is predicted to hit.

msps [DRSC17004] | mitotic cells, replicate 1 = 9; activity call = inactive
Tig [DRSC03456] | mitotic cells, replicate 1 = 1; activity call = inactive
Tig [DRSC28388] | mitotic cells, replicate 1 = 5; activity call = inactive
sdt [DRSC17555] | mitotic cells, replicate 1 = 8; activity call = inactive
sdt [DRSC17556] | mitotic cells, replicate 1 = 10; activity call = inactive
sdt [DRSC17860] | mitotic cells, replicate 1 = 10; activity call = inactive
sdt [DRSC17861] | mitotic cells, replicate 1 = 16; activity call = inactive
sdt [DRSC18022] | mitotic cells, replicate 1 = 12; activity call = inactive
sdt [DRSC18108] | mitotic cells, replicate 1 = 11; activity call = inactive
sdt [DRSC26851] | mitotic cells, replicate 1 = 7; activity call = inactive
CG30416 [DRSC04565] | mitotic cells, replicate 1 = 6; activity call = inactive
ND-B14.5AL [DRSC11795] | mitotic cells, replicate 1 = 6; activity call = inactive
ND-B14.5AL [DRSC28992] | mitotic cells, replicate 1 = 3; activity call = inactive
HGTX [DRSC09319] | mitotic cells, replicate 1 = 4; activity call = inactive
HGTX [DRSC11181] | mitotic cells, replicate 1 = 2; activity call = inactive
CG31974 [DRSC00522] | mitotic cells, replicate 1 = 9; activity call = inactive
Lcp65Ab2 + Lcp65Ab1 [DRSC10340] | mitotic cells, replicate 1 = 5; activity call = inactive
Lcp65Ab2 + Lcp65Ab1 [DRSC10343] | mitotic cells, replicate 1 = 4; activity call = inactive
Lcp65Ab2 + Lcp65Ab1 [DRSC29739] | mitotic cells, replicate 1 = 5; activity call = inactive
Mcr [DRSC03366] | mitotic cells, replicate 1 = 12; activity call = inactive

Copied from the list:
Under “mitotic cells, replicate 1”, Tig [DRSC28388] reads 5
For “activity call”, msps [DRSC17004] shows inactive

The list goes on:
Obp83ef [DRSC12268] | mitotic cells, replicate 1 = 10; activity call = inactive
Obp83ef [DRSC30027] | mitotic cells, replicate 1 = 8; activity call = inactive
CG16974 [DRSC02551] | mitotic cells, replicate 1 = 4; activity call = inactive
CG16974 [DRSC28759] | mitotic cells, replicate 1 = 6; activity call = inactive
CG34393 [DRSC00419] | mitotic cells, replicate 1 = 4; activity call = inactive
CG34393 [DRSC00710] | mitotic cells, replicate 1 = 3; activity call = inactive
CG34393 [DRSC24621] | mitotic cells, replicate 1 = 5; activity call = inactive
CG34393 [DRSC26763] | mitotic cells, replicate 1 = 7; activity call = inactive
CG7985 [DRSC14128] | mitotic cells, replicate 1 = 10; activity call = inactive
nrv2 [DRSC00948] | mitotic cells, replicate 1 = 5; activity call = inactive
nrv2 [DRSC03383] | mitotic cells, replicate 1 = 8; activity call = inactive
CG7997 [DRSC07052] | mitotic cells, replicate 1 = 5; activity call = inactive
CG7997 [DRSC25706] | mitotic cells, replicate 1 = 4; activity call = inactive
CG12784 [DRSC14539] | mitotic cells, replicate 1 = 4; activity call = inactive
